Data as given in paper PMC7819943, “Rice protein-binding microarrays: a tool to detect cis-acting elements near promoter regions in rice”.
The list shows a part of the results.

Each sequence was assayed against T1, OsSMF1 (Oryza sativa, UniProt Q6ZLB0 1-436) (assay: protein-binding microarray (RPBM); PBS, 2% BSA, 51.3 ng/ul salmon testes DNA, 50 uM zinc acetate, 200 nM TF, 25 C, 1 h; high values mean tight binding). Conditions: protein: recombinant; tags: N-terminal polyhistidine and DsRed monomer fusion (pET32a); chain copies: 2; label: CyDye5-dUTP incorporated in the synthesized complementary strand; 3' TTTTT single-stranded linker to array surface; dsDNA, one strand shown.
T1 sequence: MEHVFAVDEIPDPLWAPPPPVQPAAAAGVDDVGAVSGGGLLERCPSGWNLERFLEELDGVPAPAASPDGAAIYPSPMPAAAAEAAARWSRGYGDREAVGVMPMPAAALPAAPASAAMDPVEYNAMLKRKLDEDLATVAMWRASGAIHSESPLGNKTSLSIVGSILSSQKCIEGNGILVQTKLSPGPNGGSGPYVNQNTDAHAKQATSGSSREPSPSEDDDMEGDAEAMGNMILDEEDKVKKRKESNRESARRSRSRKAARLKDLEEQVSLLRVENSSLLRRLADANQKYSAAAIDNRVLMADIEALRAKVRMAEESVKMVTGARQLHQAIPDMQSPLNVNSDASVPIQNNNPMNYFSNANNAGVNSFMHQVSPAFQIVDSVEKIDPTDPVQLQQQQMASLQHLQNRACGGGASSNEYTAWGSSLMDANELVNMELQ
Procedure, shortened: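 The binding signal is fluorescence intensity per array feature (arbitrary units). Readings came from an Axon 4000B scanner after a washed, 2% BSA-blocked, double-stranded custom Agilent array had been incubated for 1 h at 25 °C with 200 nM protein and 50 µM zinc acetate. The protein was a Ni–NTA-purified transcription factor fused N-terminally to polyhistidine and DsRed, expressed in E. coli BL21-CodonPlus.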

| Sequence | binding signal |
| --- | --- |
| ATGCCGGTCGCCGGAGCCGGCCACCGTGTACGTGCCAGACCGGAGTCACCTAGTGCAG | 4310 fluorescence intensity (a.u.) |
| GCGCGAGCATCAGCGGTTTTGTTGCGTAACACCGAATGTACGGAGTCACCTAGTGCAG | 7910 fluorescence intensity (a.u.) |
| TTTCTATAAATTGTAATGAAAATAACAAATAAAACTCAAACGGAGTCACCTAGTGCAG | 4500 fluorescence intensity (a.u.) |
| CGCGACACGACACGACACGACACGACGGCACGAGCCCACCCGGAGTCACCTAGTGCAG | 4540 fluorescence intensity (a.u.) |
| ATCCTGTGCAACACGGCAACGCCGGATCCGTGCAAAACCACGGAGTCACCTAGTGCAG | 3410 fluorescence intensity (a.u.) |
| ACTGGCTGAGTCAGCTTGTGGGACCCATATGTCAGTGACACGGAGTCACCTAGTGCAG | 11700 fluorescence intensity (a.u.) |
| CGCCTTGGCCCGACCCACGTCGATGAGCCACACCGGGGTGCGGAGTCACCTAGTGCAG | 3870 fluorescence intensity (a.u.) |
| TTTGATCAGAGATGCATAAGTCATGAATTTTATTTAGGCCCGGAGTCACCTAGTGCAG | 3500 fluorescence intensity (a.u.) |
| GCTAGGGCAGAGGCTAGAGCCACGCACCCTAAATGTCCCACGGAGTCACCTAGTGCAG | 3570 fluorescence intensity (a.u.) |
| ATTAGTATTCCCTCCCATCATTAATATATGACGTTAGTGTCGGAGTCACCTAGTGCAG | 4550 fluorescence intensity (a.u.) |
| TGGATCCTGGCGCGCTCTGCCGCCGCCGCGTCGCCCACGACGGAGTCACCTAGTGCAG | 30200 fluorescence intensity (a.u.) |
| TTTTCCTGTGCGGGTGACGTGGAGCAGCATCGAAATCGAACGGAGTCACCTAGTGCAG | 10200 fluorescence intensity (a.u.) |
| CCCGGACTCCTCATCGGACTCGCCGTCGTAGCGCTCATCCCGGAGTCACCTAGTGCAG | 4400 fluorescence intensity (a.u.) |
| TGTTGCTGTGTCGTGTGGTCGTGACTCGTGTGACTCGGTGCGGAGTCACCTAGTGCAG | 5260 fluorescence intensity (a.u.) |
| CATTAATCCGCTCGATCGCCACGTGATCCTGTTGTGTCTTCGGAGTCACCTAGTGCAG | 4930 fluorescence intensity (a.u.) |
| GCCGTTGTTATGAACGGATACGATACGTGTACCACTTTGTCGGAGTCACCTAGTGCAG | 3340 fluorescence intensity (a.u.) |
| GGCCGTGCCATGCCGTGCCAGCCCTCTACAGTAAACGTGCCGGAGTCACCTAGTGCAG | 3250 fluorescence intensity (a.u.) |
| GCAGGGCCAAGTACGCGCTGCCACCTGACGTGTCGTGGAGCGGAGTCACCTAGTGCAG | 14000 fluorescence intensity (a.u.) |
| CGCGGCTACGGCTGAGCGGAGGCTACTACGGCGGCAGCTGCGGAGTCACCTAGTGCAG | 3540 fluorescence intensity (a.u.) |
| ATAGTAAATTTCGGTACGGTTTATCCTAGTTGGCATTGGCCGGAGTCACCTAGTGCAG | 4070 fluorescence intensity (a.u.) |
| CATTCATGTAAATTGTGTTACATGTCATCTCCATAAGTATCGGAGTCACCTAGTGCAG | 3160 fluorescence intensity (a.u.) |
| TTTTAGAGTATGACACGTGGGTCTCAAAGTTAAGAAAGTGCGGAGTCACCTAGTGCAG | 11500 fluorescence intensity (a.u.) |
| CGCGTTCCGTACGCTCGCGCACCGTCCACGTGGCGCCCCTCGGAGTCACCTAGTGCAG | 26900 fluorescence intensity (a.u.) |
| GAACCCTAGTTCCTCTTTGCCTTTCCGCTTCTCCGCGCCCCGGAGTCACCTAGTGCAG | 3750 fluorescence intensity (a.u.) |
| TCTGATACTCTGATGTCATCATAACACTTAGTCAAACCTACGGAGTCACCTAGTGCAG | 3510 fluorescence intensity (a.u.) |
| GGACACACACCCACACGCGCATCCATCCATCCATCCATCCCGGAGTCACCTAGTGCAG | 3220 fluorescence intensity (a.u.) |
| AAGGTGACCTTTCACTGTTGCTTTGCTTGTGATGCGTAGTCGGAGTCACCTAGTGCAG | 3360 fluorescence intensity (a.u.) |

Reprinted at random: two records from the list, in no set order.

| Sequence | binding signal |
| --- | --- |
| GCCGTTGTTATGAACGGATACGATACGTGTACCACTTTGTCGGAGTCACCTAGTGCAG | 3340 fluorescence intensity (a.u.) |
| GAACCCTAGTTCCTCTTTGCCTTTCCGCTTCTCCGCGCCCCGGAGTCACCTAGTGCAG | 3750 fluorescence intensity (a.u.) |

Continued.

| Sequence | binding signal |
| --- | --- |
| TGTCGGTACTTTCATACGTCATCTATGTATGAGTCGGTTTCGGAGTCACCTAGTGCAG | 10600 fluorescence intensity (a.u.) |
| CCCAAATATCCACATCTAGCATATTTATTTTCTTTCCAATCGGAGTCACCTAGTGCAG | 3780 fluorescence intensity (a.u.) |
| TCTGACCTACGTGGCACAGGCGTGCCACGTGGACGATGAGCGGAGTCACCTAGTGCAG | 24000 fluorescence intensity (a.u.) |
| TTCGATCTCTCTCAAGGTCTCACCAACCAGCCGATCGAAGCGGAGTCACCTAGTGCAG | 3770 fluorescence intensity (a.u.) |
| GAAGGCGGCGCGGAAGTCGGCGCCGGCGACCGGCGGCGTGCGGAGTCACCTAGTGCAG | 9120 fluorescence intensity (a.u.) |
| AAATTAAACGACTTGTAATATGAGTCAGGGTATTACAATACGGAGTCACCTAGTGCAG | 5500 fluorescence intensity (a.u.) |
| AATCCATTATCCATTCCTTTCCTTTCCGGTGACATGTAGTCGGAGTCACCTAGTGCAG | 3270 fluorescence intensity (a.u.) |
| TACTTATCCCAAGCTGTACATGATGCTGTTACATGATGCTCGGAGTCACCTAGTGCAG | 25800 fluorescence intensity (a.u.) |
| CATTGAAGAGTTGGAACTACTAGTAACCTGTGCTGTCTGTCGGAGTCACCTAGTGCAG | 3200 fluorescence intensity (a.u.) |
| AGTTAGCTGTAATTACATCATGATTGTACTGTATTTACGTCGGAGTCACCTAGTGCAG | 3740 fluorescence intensity (a.u.) |
| CGCCGTCCATCCCATCCACCGCCGACACGTGCTCCACTGTCGGAGTCACCTAGTGCAG | 23500 fluorescence intensity (a.u.) |
| AGTTGCCCAACATGTGGCGTCTCAGGCACGGACACGTACTCGGAGTCACCTAGTGCAG | 5300 fluorescence intensity (a.u.) |
| ATCACCTTAGTCATTGAAATATTTATTACTGAAACTTGTACGGAGTCACCTAGTGCAG | 3390 fluorescence intensity (a.u.) |
| ACAAATGGTCAAACGTTGGTCGAAAAGTCAACGGCGTCATCGGAGTCACCTAGTGCAG | 4840 fluorescence intensity (a.u.) |
| ACCAGAGCACCCAGAATTTTACAGCAGCTACTGCTGCTCACGGAGTCACCTAGTGCAG | 4050 fluorescence intensity (a.u.) |
| TATACTTCCCTCTGACTGTAATAAACTTTTGGAGCATAGTCGGAGTCACCTAGTGCAG | 3500 fluorescence intensity (a.u.) |
| CCTATGCCGGATGAGCTACTGGCAACGACCGAAGGAGGTGCGGAGTCACCTAGTGCAG | 3970 fluorescence intensity (a.u.) |
| TGTATAGTTTGTACCTCATGCTTCAAAATTTTGATACTAACGGAGTCACCTAGTGCAG | 3240 fluorescence intensity (a.u.) |
| AGTTCTCTAGCTTGTTGCTCACTCACGCATGGCGCAAGGGCGGAGTCACCTAGTGCAG | 3200 fluorescence intensity (a.u.) |
| CCCCGAACCTTATTGGGCTATGTCTGGGTCATAGATGTAGCGGAGTCACCTAGTGCAG | 3180 fluorescence intensity (a.u.) |
| CCATCGCGTGCTAGCTCGACCACATGATGACTTGATTCCCCGGAGTCACCTAGTGCAG | 4400 fluorescence intensity (a.u.) |
| GAATGAATGTATTGATGACACGTCAAAACTTGAAACGGCGCGGAGTCACCTAGTGCAG | 15000 fluorescence intensity (a.u.) |
| GAAAGTTAAAAGGACCTCGGTGACACACCCACACAATTTTCGGAGTCACCTAGTGCAG | 5400 fluorescence intensity (a.u.) |
| ACGTACTGGCGTACTGCTGTCTCAGCTTGTCATGGAGATGCGGAGTCACCTAGTGCAG | 4220 fluorescence intensity (a.u.) |
| CCGGTCACCATCGCCGTCATCACCGCGCCCCTCGATCCGACGGAGTCACCTAGTGCAG | 5130 fluorescence intensity (a.u.) |
| TTACTGGTGATATTTATTTTGACAAGTGCTTTTATTTGTACGGAGTCACCTAGTGCAG | 3930 fluorescence intensity (a.u.) |
| CTAACCACGCCCGCCACGTACGCCGCCTCTGGGACCCCGACGGAGTCACCTAGTGCAG | 5440 fluorescence intensity (a.u.) |
